Assay results from patent US8124054B2 (Korea Atomic Energy Research Institute, priority 2008, dated 2012).

Experiment: general procedure: Fmoc solid-phase peptide synthesis; NH2-MBHA resin; HBTU/HOBt/DIPEA
Conditions: whole synthesis

Substance | isolated yield
DOTA-Gly-Cyclic(Dap-Glu-His-dPhe-Arg-Trp-Asp)-Arg-Pro-Val-CONH2 | Yield: 10%
DOTA-Gly-Dap-Glu-His-dPhe-Arg-Trp-Asp-Lys-Pro-Val-CONH2 | yield: 10%
DOTA-Gly-cyclic(Dap-Gln-His-dPhe-Arg-Trp-Asp)-Arg-Pro-Val-CONH2 | Yield: 10%
DOTA-Gly-cyclic(Dap-Gln-His-dPhe-Arg-Trp-Asp)-CONH2 | Yield: 10%
DOTA-Gly-cyclic(Dap-Gln-His-dPhe-Arg-Trp-Asp)-Lys-Pro-Val-CONH2 | Yield: 10%
DOTA-Gly-cyclic(Dap-Glu-His-dPhe-Arg-Trp-Asp)-CONH2 | yield: 10%
DOTA-Gly-cyclic(Dap-Glu-His-dPhe-Arg-Trp-Asp)-Lys-Pro-Val-CONH2 | yield: 10%
{DOTA}-G[Dap]EH[dF]RWD-NH2 | yield: 10%
{DOTA}-G[Dap]EH[dF]RWDRPV-NH2 | yield: 10%
{DOTA}-G[Dap]QH[dF]RWD-NH2 | Yield: 10%
{DOTA}-G[Dap]QH[dF]RWDKPV-NH2 | Yield: 10%

Non-standard residues stand in square brackets, D forms with d. *: point of attachment. DOTA = O=C(O)CN1CCN(CC(=O)O)CCN(CC(=O)*)CCN(CC(=O)O)CC1; Dap = NC[C@H](N)C(=O)O
